Data: the supplement of paper PMC10849652
This is one part of the list.

Chains of the proteins cited; added tags and fusions are not shown. Lines headed by an entry give the natural chain unless they say otherwise; changes in a name come on top.
UniProt P67809, whole entry, looked up: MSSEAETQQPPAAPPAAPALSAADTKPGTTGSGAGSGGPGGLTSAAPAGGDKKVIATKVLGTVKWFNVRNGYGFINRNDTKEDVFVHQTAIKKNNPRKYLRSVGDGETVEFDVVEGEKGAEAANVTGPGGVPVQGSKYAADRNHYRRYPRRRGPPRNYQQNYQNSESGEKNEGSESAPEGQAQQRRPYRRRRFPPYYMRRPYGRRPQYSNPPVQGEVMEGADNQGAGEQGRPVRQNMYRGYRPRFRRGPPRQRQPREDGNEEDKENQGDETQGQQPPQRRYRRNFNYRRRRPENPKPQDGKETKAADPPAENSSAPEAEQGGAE
UniProt Q9H5J0: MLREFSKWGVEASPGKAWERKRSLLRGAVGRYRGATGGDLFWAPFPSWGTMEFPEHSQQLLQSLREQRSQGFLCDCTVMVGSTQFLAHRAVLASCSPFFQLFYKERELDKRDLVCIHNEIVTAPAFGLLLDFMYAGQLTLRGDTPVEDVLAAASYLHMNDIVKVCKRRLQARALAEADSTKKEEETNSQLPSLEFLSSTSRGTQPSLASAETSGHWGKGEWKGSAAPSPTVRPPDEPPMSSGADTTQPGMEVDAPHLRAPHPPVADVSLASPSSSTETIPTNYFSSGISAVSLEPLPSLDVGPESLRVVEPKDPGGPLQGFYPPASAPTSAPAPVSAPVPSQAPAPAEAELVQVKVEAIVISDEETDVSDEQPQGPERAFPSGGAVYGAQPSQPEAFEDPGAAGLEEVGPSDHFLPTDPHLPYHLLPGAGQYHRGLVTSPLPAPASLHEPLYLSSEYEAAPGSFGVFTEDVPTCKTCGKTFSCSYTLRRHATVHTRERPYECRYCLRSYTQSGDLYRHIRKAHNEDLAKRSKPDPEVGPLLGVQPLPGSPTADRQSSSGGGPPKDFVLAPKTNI
UniProt O43592: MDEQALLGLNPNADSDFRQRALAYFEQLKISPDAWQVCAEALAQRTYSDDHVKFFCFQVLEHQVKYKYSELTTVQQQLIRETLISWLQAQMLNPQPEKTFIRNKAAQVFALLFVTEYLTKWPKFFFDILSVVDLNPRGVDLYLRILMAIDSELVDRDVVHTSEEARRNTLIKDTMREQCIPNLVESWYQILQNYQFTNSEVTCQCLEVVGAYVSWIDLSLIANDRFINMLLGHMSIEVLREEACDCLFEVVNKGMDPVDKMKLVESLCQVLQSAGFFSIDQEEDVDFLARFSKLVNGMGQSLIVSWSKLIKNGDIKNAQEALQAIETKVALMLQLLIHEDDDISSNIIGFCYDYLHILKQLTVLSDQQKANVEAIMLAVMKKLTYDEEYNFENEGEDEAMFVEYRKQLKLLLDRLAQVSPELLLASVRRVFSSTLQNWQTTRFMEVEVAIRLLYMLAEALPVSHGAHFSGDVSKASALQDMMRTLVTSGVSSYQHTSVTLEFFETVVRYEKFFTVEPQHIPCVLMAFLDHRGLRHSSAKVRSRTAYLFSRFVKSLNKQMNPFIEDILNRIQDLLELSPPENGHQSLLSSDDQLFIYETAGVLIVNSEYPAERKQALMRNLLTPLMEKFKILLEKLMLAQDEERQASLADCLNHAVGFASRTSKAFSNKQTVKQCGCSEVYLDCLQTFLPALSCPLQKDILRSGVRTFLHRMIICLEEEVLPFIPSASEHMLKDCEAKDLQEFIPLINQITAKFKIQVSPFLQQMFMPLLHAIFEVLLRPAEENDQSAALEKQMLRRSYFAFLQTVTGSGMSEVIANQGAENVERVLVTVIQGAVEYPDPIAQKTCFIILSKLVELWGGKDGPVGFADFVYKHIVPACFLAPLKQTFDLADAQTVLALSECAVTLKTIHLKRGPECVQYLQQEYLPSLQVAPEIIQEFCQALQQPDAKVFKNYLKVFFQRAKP
UniProt P49750: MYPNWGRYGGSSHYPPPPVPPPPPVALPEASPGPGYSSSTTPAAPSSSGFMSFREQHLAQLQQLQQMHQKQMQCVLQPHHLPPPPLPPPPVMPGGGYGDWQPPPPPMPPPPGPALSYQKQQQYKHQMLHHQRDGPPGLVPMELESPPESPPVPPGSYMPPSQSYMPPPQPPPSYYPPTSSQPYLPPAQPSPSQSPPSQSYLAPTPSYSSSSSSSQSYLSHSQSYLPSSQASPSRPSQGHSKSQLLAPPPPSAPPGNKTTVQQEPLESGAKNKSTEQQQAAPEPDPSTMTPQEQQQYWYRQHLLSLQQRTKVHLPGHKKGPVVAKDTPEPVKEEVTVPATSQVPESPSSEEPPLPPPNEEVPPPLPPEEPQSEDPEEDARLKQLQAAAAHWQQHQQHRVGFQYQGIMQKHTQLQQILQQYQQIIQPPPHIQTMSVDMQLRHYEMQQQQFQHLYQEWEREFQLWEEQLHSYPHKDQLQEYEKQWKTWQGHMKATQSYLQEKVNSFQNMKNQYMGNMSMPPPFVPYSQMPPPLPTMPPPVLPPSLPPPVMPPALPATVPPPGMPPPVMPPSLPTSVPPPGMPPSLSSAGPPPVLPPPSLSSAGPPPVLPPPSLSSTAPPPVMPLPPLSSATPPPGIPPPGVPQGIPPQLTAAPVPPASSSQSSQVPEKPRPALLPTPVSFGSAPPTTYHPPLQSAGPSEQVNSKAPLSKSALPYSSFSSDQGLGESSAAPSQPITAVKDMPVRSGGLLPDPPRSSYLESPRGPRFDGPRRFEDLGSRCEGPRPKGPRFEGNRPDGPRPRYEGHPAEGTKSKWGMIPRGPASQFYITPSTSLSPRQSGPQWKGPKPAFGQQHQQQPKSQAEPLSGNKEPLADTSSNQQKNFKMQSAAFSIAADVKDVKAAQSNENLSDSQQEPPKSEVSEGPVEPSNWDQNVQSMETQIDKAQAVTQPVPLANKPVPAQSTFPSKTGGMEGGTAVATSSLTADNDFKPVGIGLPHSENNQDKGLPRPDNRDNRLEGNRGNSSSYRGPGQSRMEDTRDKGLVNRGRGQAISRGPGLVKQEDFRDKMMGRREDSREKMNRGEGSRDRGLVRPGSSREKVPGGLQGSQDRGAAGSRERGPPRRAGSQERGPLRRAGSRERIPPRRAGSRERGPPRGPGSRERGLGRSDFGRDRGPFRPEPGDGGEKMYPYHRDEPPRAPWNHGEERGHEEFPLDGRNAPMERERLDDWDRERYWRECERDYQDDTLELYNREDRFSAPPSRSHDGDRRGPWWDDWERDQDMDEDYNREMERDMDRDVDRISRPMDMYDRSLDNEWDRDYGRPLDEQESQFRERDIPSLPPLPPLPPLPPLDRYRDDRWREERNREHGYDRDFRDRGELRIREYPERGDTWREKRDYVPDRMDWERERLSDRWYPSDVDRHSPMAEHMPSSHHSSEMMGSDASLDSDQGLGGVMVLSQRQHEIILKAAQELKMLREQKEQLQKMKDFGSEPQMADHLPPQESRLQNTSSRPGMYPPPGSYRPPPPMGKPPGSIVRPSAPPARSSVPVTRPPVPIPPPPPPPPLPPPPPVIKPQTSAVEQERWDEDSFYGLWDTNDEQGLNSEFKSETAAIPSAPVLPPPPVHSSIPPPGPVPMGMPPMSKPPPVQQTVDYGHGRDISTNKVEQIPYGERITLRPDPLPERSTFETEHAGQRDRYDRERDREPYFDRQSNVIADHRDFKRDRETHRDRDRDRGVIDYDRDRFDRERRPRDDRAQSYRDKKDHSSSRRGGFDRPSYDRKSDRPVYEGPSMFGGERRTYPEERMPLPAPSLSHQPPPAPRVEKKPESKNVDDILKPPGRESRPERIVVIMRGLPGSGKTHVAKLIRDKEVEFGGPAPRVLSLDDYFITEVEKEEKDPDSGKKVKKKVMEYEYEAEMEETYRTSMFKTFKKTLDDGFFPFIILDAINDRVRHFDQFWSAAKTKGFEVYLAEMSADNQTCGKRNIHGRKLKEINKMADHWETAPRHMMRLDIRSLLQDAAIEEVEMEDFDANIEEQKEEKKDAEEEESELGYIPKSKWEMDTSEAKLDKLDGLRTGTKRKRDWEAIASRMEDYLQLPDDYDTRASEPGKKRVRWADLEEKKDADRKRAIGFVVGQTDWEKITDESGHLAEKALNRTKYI
UniProt Q5W0Z9: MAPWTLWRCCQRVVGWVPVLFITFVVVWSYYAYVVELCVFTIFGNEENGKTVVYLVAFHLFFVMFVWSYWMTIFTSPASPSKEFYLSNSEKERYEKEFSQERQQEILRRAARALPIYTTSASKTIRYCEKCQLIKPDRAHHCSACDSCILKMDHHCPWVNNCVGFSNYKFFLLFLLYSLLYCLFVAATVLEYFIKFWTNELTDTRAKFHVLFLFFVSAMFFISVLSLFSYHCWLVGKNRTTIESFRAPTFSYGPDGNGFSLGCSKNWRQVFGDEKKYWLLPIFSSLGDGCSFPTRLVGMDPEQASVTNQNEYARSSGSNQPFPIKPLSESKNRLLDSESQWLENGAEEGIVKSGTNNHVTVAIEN
UniProt Q8IX07: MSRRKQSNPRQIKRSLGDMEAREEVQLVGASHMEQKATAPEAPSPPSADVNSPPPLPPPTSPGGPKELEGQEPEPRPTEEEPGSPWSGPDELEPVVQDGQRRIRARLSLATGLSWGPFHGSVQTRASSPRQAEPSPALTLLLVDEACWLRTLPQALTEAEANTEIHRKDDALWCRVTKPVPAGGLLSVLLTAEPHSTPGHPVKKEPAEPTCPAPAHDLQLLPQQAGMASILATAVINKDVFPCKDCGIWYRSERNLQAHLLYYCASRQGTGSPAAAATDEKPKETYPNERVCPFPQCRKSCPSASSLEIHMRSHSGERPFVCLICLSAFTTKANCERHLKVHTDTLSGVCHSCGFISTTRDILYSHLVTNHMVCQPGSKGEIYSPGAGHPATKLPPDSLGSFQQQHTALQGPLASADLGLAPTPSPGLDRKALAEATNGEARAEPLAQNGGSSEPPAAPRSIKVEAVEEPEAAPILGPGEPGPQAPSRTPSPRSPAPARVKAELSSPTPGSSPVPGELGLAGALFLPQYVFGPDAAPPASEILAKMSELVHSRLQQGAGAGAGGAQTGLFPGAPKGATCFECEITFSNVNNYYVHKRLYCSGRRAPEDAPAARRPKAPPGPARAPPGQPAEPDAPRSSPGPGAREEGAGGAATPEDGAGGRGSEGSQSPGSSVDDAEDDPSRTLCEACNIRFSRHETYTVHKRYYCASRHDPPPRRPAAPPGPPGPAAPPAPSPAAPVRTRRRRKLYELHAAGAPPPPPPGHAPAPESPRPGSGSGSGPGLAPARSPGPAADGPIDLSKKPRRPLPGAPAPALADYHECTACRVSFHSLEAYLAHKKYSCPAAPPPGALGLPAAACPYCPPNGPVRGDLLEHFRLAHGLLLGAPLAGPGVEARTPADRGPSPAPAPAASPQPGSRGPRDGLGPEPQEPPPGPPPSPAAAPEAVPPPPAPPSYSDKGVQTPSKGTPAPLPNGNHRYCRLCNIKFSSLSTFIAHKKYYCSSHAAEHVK
UniProt Q9NUD5: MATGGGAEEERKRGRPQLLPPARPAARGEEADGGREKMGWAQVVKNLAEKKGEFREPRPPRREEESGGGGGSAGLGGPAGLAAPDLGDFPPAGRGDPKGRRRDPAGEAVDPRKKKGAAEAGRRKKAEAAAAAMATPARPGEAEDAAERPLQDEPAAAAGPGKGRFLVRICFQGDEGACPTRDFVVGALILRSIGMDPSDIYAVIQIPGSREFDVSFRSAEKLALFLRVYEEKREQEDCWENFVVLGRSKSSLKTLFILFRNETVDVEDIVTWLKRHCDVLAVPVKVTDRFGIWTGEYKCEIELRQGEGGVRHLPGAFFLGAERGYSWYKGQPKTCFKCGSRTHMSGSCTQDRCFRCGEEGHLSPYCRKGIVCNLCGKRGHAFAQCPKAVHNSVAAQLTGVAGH
UniProt Q6NZY4: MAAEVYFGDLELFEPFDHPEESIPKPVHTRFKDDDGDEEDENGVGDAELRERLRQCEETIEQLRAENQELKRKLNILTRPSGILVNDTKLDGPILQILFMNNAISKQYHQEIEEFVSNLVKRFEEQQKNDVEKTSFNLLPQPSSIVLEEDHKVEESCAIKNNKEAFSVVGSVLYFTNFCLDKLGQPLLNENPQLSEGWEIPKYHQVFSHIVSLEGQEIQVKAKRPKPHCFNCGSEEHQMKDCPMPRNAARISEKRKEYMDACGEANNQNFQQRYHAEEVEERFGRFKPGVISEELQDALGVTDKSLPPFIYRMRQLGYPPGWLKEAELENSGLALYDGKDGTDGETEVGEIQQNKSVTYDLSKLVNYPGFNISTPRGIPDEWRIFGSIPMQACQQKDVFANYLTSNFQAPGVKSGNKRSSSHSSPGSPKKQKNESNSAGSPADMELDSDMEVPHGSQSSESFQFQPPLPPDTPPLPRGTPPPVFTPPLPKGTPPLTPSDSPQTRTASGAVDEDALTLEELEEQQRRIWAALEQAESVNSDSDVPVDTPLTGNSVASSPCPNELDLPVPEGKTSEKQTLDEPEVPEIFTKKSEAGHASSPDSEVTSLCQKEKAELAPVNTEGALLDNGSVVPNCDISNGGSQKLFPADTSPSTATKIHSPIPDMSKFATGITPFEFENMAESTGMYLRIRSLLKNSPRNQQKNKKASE

Assays:
Experiment in all cases: log2 fold change, soluble protein after heating vs DMSO (PISA); higher = thermal stabilisation; K562 lysate, 10 uM; active = over 0.2 and 3.5 SD of the protein, either way, in both replicates (recomputed)
[1] = compound: C1=CC=C(C=C1)[C@H](COC2=CC3=C(C=C2)NC(=O)N3)NC(=O)C4=CC=CN(C4=O)CC5=CC(=C(C=C5)F)F
Outline: (§1)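 K562 pellets were dounce-homogenised in PBS pH 7.4 containing 1 mM MgCl2, and the crude extract, at 1 mg/mL protein, was exposed to 10 μM compound for 30 min. Aliquots were heated for 3 min across 48°C-58°C, pooled, brought to 0.5% NP-40 at 4°C and spun at 21,000xg for 90 min, with the supernatant taken as soluble protein. TMTpro 16plex LC-MS/MS with equalised channel sums quantified that protein. Values are log-two fold changes in thermal stability relative to solvent controls, taken from duplicates.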

[2] = compound: CC1=C(SC2=C1C(=N[C@H](C3=NN=C(N32)C)CC(=O)N)C4=CC=C(C=C4)Cl)C
Outline: as §1

[3] = compound: CC1=C2C(=CC=C1)N=C(N(C2=O)C3=CC=CC=C3C)CN4C=NC5=C(N=CN=C54)N
Outline: as §1

[4] = compound: Cc1sc2c(c1C)C(c1ccc(Cl)cc1)=N[C@@H](CC(=O)OC(C)(C)C)c1nnc(C)n1-2
Outline: as §1

[5] = compound: c1ccc([C@@H]2C[C@H]2NC2CCNCC2)cc1
Outline: as §1

Measured: log2 fold change

ZC3H8 (UniProt Q8N5P1)
inactive: [1] 0.04 | [2] 0.036 | [3] 0.061 | [4] -0.081 | [5] -0.033

YBX1 (UniProt P67809)
inactive: [1] 0.02 | [2] 0.012 | [3] -0.026 | [4] -0.044 | [5] 0.037

ZBTB3 (UniProt Q9H5J0)
inactive: [1] 0.093 | [2] 0.173 | [3] 0.137 | [4] -0.072 | [5] -0.065

XPOT (UniProt O43592)
inactive: [1] -0.017 | [2] 0.008 | [3] 0.037 | [4] 0.003 | [5] 0.021

YLPM1 (UniProt P49750)
inactive: [1] -0.029 | [2] -0.04 | [3] 0.034 | [4] 0.005 | [5] 0.05

ZDHHC20 (UniProt Q5W0Z9)
inactive: [1] 0.05 | [2] 0.099 | [3] 0.053 | [4] 0.055 | [5] -0.084

ZFPM1 (UniProt Q8IX07)
inactive: [1] 0.073 | [2] -0.033 | [3] -0.012 | [4] -0.036 | [5] 0.078

ZCCHC3 (UniProt Q9NUD5)
inactive: [1] -0.006 | [2] -0.034 | [3] -0.027 | [4] -0.013 | [5] -0.005

ZCCHC8 (UniProt Q6NZY4)
inactive: [1] 0.048 | [2] 0.009 | [3] 0.005 | [4] -0.001 | [5] 0.008
